## Library screening results

Measurements from “University of Dundee, Small-Polar-MMV Screening Library” (2021), ChEMBL document CHEMBL3988442.

Mtb growth Cornell: 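Whole-cell assay for inhibitors of Mycobacterium tuberculosis growth, labelled Cornell in the record; the read-out is not stated. The concentration is filed as 10 mM, unlikely as a test dose, so the dose is not known. The record gives no direction; compounds strong in two other growth screens of this library score well above the rest, so higher reads as stronger inhibition. Of about 53,000 compounds tested this way, about 900 (1.7%) reached 50% or more in at least one test.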
Mtb heat-shock: 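Assay on Mycobacterium tuberculosis, filed only as a heat shock assay from Cornell; the read-out is not stated. The concentration is filed as 10 mM, unlikely as a test dose, so the dose is not known. Higher reads as stronger inhibition (inferred: compounds with an IC50 in retests scored well above the rest). Size under these conditions: about 69,000 compounds, about 930 of them at 50% or above in at least one test.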

The filed quantity is “Percent Effect” (%).
The controls that fix the scale are not given in the record; negative values are as filed.
This is an unselected part of the compounds tested.

{"compound": "Cc1cnc2n1CCN(C)C21CCN(CC2CC2)CC1.O=C(O)C(F)(F)F.O=C(O)C(F)(F)F.O=C(O)C(F)(F)F", "Mtb growth Cornell": 16.51, "Mtb heat-shock": -21.71}
{"compound": "Cc1ccc(CN(Cc2cc(=O)n3cccc(C)c3n2)C(C)C)o1", "Mtb heat-shock": 23.51}
{"compound": "CNC(=O)NCC(CO)Cc1ccccc1OC(F)(F)F", "stereo": "centres undefined", "Mtb growth Cornell": -4.688, "Mtb heat-shock": 2.413}
{"compound": "COCCCC1(C(=O)O)CCCN(C(=O)c2ccc(C(C)C)[nH]c2=O)C1", "stereo": "centres undefined", "Mtb growth Cornell": -22.77, "Mtb heat-shock": 3.06}
{"compound": "Cc1cccc(C)c1Oc1ncccc1CNC(=O)C1(C)CCCNC1", "stereo": "centres undefined", "Mtb growth Cornell": 28.59, "Mtb heat-shock": 12.73}
{"compound": "COCCN(C)c1ccc(NCc2cscn2)nc1", "Mtb growth Cornell": -0.1065, "Mtb heat-shock": 13.97}
{"compound": "[H][C@]12CC[C@]([H])(CN(C(=O)c3cccnc3)C1)N(C(=O)CN1CCOC1=O)C2", "Mtb growth Cornell": -72.74, "Mtb heat-shock": -5.076}
{"compound": "CC(C)OCc1ccc(CNC(=O)NC2(CO)CCCC2)cc1", "Mtb growth Cornell": -8.055, "Mtb heat-shock": 3.292}
{"compound": "O=C(O)C(F)(F)F.O=C(O)C(F)(F)F.O=C(O)C(F)(F)F.[H][C@@]12OCCN(Cc3cccc(C)n3)[C@@]1([H])CC[C@H]2Oc1ccccn1", "Mtb growth Cornell": 32.21, "Mtb heat-shock": -21.37}
{"compound": "COCC(=O)N1CCc2cccc(S(=O)(=O)N3CCOCC3)c2C1", "Mtb growth Cornell": 1.565, "Mtb heat-shock": -35.18}
{"compound": "CSCc1noc(CNC(=O)c2cc(C)c(C)[nH]c2=O)n1", "Mtb growth Cornell": 12.03, "Mtb heat-shock": -33.52}
{"compound": "CC(C)[C@H]1CN(Cc2ccccc2C#N)C[C@@H]1NC(=O)C1CCOCC1", "Mtb growth Cornell": -48.35, "Mtb heat-shock": -49.37}
{"compound": "[H][C@]12CC[C@]([H])(CN(C3CCOCC3)C1)N(Cc1cscn1)C2=O", "Mtb growth Cornell": 7.393, "Mtb heat-shock": -15.88}
{"compound": "C[C@@H]1CN(C(=O)c2nc3sccn3c2-c2ncc[nH]2)C[C@H](C)O1", "Mtb growth Cornell": 38.16, "Mtb heat-shock": -2.133}
{"compound": "O=C(c1ccc(F)cc1F)N1CCN(C(=O)C2CCCCC2)CC1", "Mtb growth Cornell": 4.722, "Mtb heat-shock": -2.653}
{"compound": "O=C1CC(c2ccc(F)cc2)Cc2[nH]c(=O)c(C(=O)O)cc21", "stereo": "centres undefined", "Mtb growth Cornell": -8.938, "Mtb heat-shock": 18.34}
{"compound": "COc1ccc(CN(C)[C@@H]2CN(S(=O)(=O)C(C)C)C[C@H]2O)cc1", "Mtb growth Cornell": 6.591, "Mtb heat-shock": -3.915}
{"compound": "COc1cccc(COCC(=O)N2CCN(CC(C)(C)O)CC2)c1", "Mtb heat-shock": 5.81}
{"compound": "Cc1cnc(CN(C)C2CCN(CC(=O)Nc3nncs3)C2)o1.O=C(O)C(F)(F)F", "stereo": "centres undefined", "Mtb growth Cornell": -23, "Mtb heat-shock": -4.89}
{"compound": "CCn1ccc2ccnc(CC3CN(C(=O)Cn4ccnc4C)C3)c21.O=CO", "Mtb growth Cornell": -0.6767, "Mtb heat-shock": -10.71}
{"compound": "Cc1cccc(-c2noc(CN3CCOCC3C)n2)c1", "stereo": "centres undefined", "Mtb growth Cornell": -9.56, "Mtb heat-shock": -19.27}
{"compound": "COCCC1(C(=O)O)CCCN(C(=O)c2cc(C)oc2C)C1", "stereo": "centres undefined", "Mtb growth Cornell": 8.303, "Mtb heat-shock": -15.06}
{"compound": "O=C(O)C(F)(F)F.c1ccc(CN2Cc3nccn3CC(Cn3cccn3)C2)nc1", "stereo": "centres undefined", "Mtb growth Cornell": 5.714, "Mtb heat-shock": 11.05}
{"compound": "COc1ccccc1CC(=O)NCc1c(C)nc2cc(=O)[nH]n2c1C", "Mtb heat-shock": 71.9}
{"compound": "Cc1cc(C[C@@H]2COC[C@@H]2NC(=O)CNC(=O)N(C)C)on1", "Mtb heat-shock": -17.31}
{"compound": "CCc1nccc(CN2CCC(CNC(=O)c3occc3C)C2)n1", "stereo": "centres undefined", "Mtb growth Cornell": -51.97, "Mtb heat-shock": 12.49}
{"compound": "COCCN1CCN(CCCS(=O)(=O)c2ccccc2)CC1C", "stereo": "centres undefined", "Mtb growth Cornell": -18.56, "Mtb heat-shock": -0.785}
{"compound": "Cc1cccc(N2CCC3(CCCN3Cc3cn(C)nc3C)CC2)n1", "Mtb growth Cornell": 16.57, "Mtb heat-shock": 8.134}
{"compound": "c1cc(CCNc2ccc(CC3CCNC3)cn2)ccn1", "stereo": "centres undefined", "Mtb growth Cornell": 6.314, "Mtb heat-shock": -15.24}
{"compound": "O=C1c2cccnc2OC(CN2CCOCC2)CN1Cc1cccs1", "stereo": "centres undefined", "Mtb growth Cornell": 8.287, "Mtb heat-shock": -1.247}
{"compound": "Cc1ccc(C(F)(F)F)cc1NC(=O)C1CCCN1", "stereo": "centres undefined", "Mtb growth Cornell": 25.6, "Mtb heat-shock": -10.72}
{"compound": "CCOc1nnc(CN(CC)CC(=O)NC(C)C)s1", "Mtb growth Cornell": 9.066, "Mtb heat-shock": 4.588}
{"compound": "F[C@@H]1CN(CC2CC2)C[C@@H]1OCc1nc2ncccc2[nH]1", "Mtb growth Cornell": 6.184, "Mtb heat-shock": -2.204}
{"compound": "Cc1nc(CN2CCN(C(=O)c3c(C)noc3C)CC2)cs1", "Mtb growth Cornell": -45.6, "Mtb heat-shock": -4.488}
{"compound": "Cc1c(C)n(-c2ccccn2)c2nc3c(c(N)c12)CCCC3", "Mtb heat-shock": 26.7}
{"compound": "COc1cc(C)nc(N2CCN(C(=O)c3ccoc3C)CC2)n1", "Mtb heat-shock": -6.497}
{"compound": "Cc1[nH]c2c(F)cccc2c1CC(=O)N1CCC(NS(C)(=O)=O)CC1", "Mtb growth Cornell": 2.422, "Mtb heat-shock": 5.185}
{"compound": "CCN1CC(C(=O)N2CC(Oc3ccccc3F)C2)CC1=O", "stereo": "centres undefined", "Mtb growth Cornell": -16.95, "Mtb heat-shock": 10.37}